Earlier results, collected in US9744314B2, “Aerosols for sinunasal drug delivery” (PARI Pharma GmbH, priority 2007, dated 2017).

Conditions: at 25° C.

OC[C@H]1O[C@@H]2O[C@H]3[C@H](O)[C@@H](O)[C@@H](O[C@H]4[C@H](O)[C@@H](O)[C@@H](O[C@H]5[C@H](O)[C@@H](O)[C@@H](O[C@H]6[C@H](O)[C@@H](O)[C@@H](O[C@H]7[C@H](O)[C@@H](O)[C@@H](O[C@H]1[C@H](O)[C@H]2O)O[C@@H]7CO)O[C@@H]6CO)O[C@@H]5CO)O[C@@H]4CO)O[C@@H]3CO [α-cyclodextrin]
Aqueous solubility: about 145 mg/ml
